According to patent US20190359983:
The exact form of at least one protein or probe is not confirmed. Where cells or extracts were used, other partners may take part. For part of these data: A negative result means that nothing was seen under these conditions. For part of these data: Tags and fusion partners may be left off the protein sequences shown. For part of these data: A weaker result is weaker than the reference pair of the same experiment.

What was measured:
Test in all cases: pull-down
[1] = tested on: Complement C1q (C1qA/C1qB/C1qC) from plasma/serum (Homo sapiens); settings: did not immunoprecipitate C1q from plasma; protein in an extract; label: biotin; single-stranded DNA; variant of 83S-B1 full
[2] = molecular target: T1, NHP2-like protein 1 (Homo sapiens) (UniProt P55769); settings: Ramos cells, protein in an extract, label: biotin, single-stranded DNA
T1 sequence (looked up, limits assumed): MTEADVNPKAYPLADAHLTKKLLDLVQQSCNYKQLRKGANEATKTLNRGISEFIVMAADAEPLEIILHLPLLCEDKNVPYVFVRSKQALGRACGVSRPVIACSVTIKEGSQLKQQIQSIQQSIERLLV

[3] = molecular target: E3 SUMO-protein ligase RanBP2 (Homo sapiens) (UniProt P49792); settings: protein in an extract; label: biotin; single-stranded DNA
[4] = molecular target: Interleukin-3 receptor subunit alpha (Homo sapiens) (UniProt P26951); settings: protein on the cell surface; label: biotin; single-stranded DNA
[5] = molecular target: Heterogeneous nuclear ribonucleoproteins C1/C2 (Homo sapiens) (UniProt P07910); settings: Ramos cells, protein in an extract, label: biotin, single-stranded DNA
[6] = molecular target: Heterogeneous nuclear ribonucleoprotein U (hnRNP U) (Homo sapiens) (UniProt Q00839); settings: Ramos cells, protein in an extract, label: biotin, single-stranded DNA
[7] = molecular target: Heterogeneous nuclear ribonucleoprotein A1 (Homo sapiens) (UniProt P09651); settings: Ramos cells, protein in an extract, label: biotin, single-stranded DNA
[8] = molecular target: Heterogeneous nuclear ribonucleoproteins A2/B1 (Homo sapiens) (UniProt P22626); settings: Ramos cells, protein in an extract, label: biotin, single-stranded DNA
[9] = molecular target: T2, rRNA 2'-O-methyltransferase fibrillarin (Homo sapiens) (UniProt P22087); settings: Ramos cells, PSM 0 and 0; protein in an extract; label: biotin; single-stranded DNA; variant of C10.36
T2 sequence (looked up, limits assumed): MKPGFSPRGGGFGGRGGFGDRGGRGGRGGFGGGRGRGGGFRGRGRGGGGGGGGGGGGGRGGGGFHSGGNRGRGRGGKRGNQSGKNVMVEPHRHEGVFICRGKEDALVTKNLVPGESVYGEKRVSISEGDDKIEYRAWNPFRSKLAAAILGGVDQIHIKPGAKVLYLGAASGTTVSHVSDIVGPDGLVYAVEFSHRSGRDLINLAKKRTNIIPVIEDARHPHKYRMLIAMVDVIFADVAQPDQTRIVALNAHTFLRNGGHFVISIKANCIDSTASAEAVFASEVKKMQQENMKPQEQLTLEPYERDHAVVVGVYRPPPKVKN

[10] = molecular target: T3, Nucleolar RNA helicase 2 (DDX21) (Homo sapiens) (UniProt Q9NR30); settings: Ramos cells, PSM 0 and 0; protein in an extract; label: biotin; single-stranded DNA; variant of C10.36
T3 sequence (looked up, limits assumed): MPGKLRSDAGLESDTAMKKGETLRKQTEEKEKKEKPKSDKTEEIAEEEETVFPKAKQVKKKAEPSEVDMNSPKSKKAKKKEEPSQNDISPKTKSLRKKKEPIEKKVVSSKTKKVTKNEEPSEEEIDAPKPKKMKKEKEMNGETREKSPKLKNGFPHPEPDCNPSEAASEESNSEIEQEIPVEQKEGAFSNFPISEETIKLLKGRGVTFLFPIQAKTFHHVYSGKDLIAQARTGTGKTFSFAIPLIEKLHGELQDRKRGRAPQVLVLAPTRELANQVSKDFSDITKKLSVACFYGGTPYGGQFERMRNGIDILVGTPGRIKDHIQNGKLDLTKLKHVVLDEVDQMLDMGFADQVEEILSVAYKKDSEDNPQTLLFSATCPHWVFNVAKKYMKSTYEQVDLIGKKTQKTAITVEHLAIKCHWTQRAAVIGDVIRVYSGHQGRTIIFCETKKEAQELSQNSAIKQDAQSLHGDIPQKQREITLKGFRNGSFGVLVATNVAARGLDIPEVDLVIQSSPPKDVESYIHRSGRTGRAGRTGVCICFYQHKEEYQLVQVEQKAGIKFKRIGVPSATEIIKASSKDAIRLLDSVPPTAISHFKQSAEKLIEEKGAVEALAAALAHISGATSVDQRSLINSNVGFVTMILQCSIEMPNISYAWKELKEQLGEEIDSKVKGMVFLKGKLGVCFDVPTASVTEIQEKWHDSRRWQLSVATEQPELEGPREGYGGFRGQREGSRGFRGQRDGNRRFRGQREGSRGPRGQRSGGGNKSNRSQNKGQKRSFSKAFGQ

[11] = molecular target: Splicing factor, proline- and glutamine-rich (SFPQ) (Homo sapiens) (UniProt P23246); settings: Ramos cells, PSM 0 and 0; protein in an extract; label: biotin; single-stranded DNA; variant of C10.36
Nucleolin (Homo sapiens) = Nucleolin (Homo sapiens) (UniProt P19338); settings: Ramos cells, PSM 0 and 0; protein in an extract; label: biotin; single-stranded DNA; variant of C10.36
NONO (Homo sapiens) = NONO (Homo sapiens) (UniProt Q15233); settings: Ramos cells, PSM 0 and 0; protein in an extract; label: biotin; single-stranded DNA; variant of C10.36
[12] = molecular target: Poly [ADP-ribose] polymerase 1 (Homo sapiens) (UniProt P09874); settings: Ramos cells, PSM 0 and 0; protein in an extract; label: biotin; single-stranded DNA; variant of C10.36
[13] = molecular target: Histone H1.5 (Homo sapiens) (UniProt P16401); settings: Ramos cells, PSM 9 and 11; protein in an extract; label: biotin; single-stranded DNA; variant of C10.36
[14] = molecular target: Histone H4 (Homo sapiens) (UniProt P62805); settings: Ramos cells, PSM 16 and 13; protein in an extract; label: biotin; single-stranded DNA; variant of C10.36

Sequence: CTAGCATGACTGCAGTACGTTACTATAGATGGATTGTCCGCTTTAAATCAACTATCTTACTGTCTCTTATACACATCTGACGCTGCCGACGA [B1 with reverse-complemented consensus motif]
- binding result [1]: no binding

Sequence: CTAACCCCGGGTGTGGTGGGTGGGCAGGGGGGTTAG [C10.36]
- binding result ([2]; PSM 7 and 5, possibly within RNP complex): binds
- binding result [3]: binds
- binding result [4]: binds
- binding result ([5]; PSM 15 and 15, possibly within RNP complex): binds
- binding result ([6]; PSM 2 and 4, stated to be direct binding partner): binds
- binding result ([7]; PSM 5 and 2, possibly within RNP complex): binds
- binding result ([8]; PSM 6 and 3, possibly within RNP complex): binds

Sequence: CTAACCCCGGGTGTGGTGGGTGGACAGGGGGGTTAG [C10.36(G24A)]
- binding result ([2]; PSM 0 and 0, variant of C10.36): no binding
- binding result [9]: no binding
- binding result [10]: no binding
- binding result [11]: no binding
- binding result (Nucleolin (Homo sapiens)): no binding
- binding result ([5]; PSM 0 and 0, variant of C10.36): no binding
- binding result (NONO (Homo sapiens)): no binding
- binding result ([6]; PSM 0 and 0, variant of C10.36): no binding
- binding result ([7]; PSM 0 and 0, variant of C10.36): no binding
- binding result [12]: no binding
- binding result ([8]; PSM 1 and 0, variant of C10.36): binds more weakly
- binding result [13]: binds more weakly
- binding result [14]: binds more weakly
